Literature values as cited in patent US20220031713A1, “METHODS OF TREATING MYELOPROLIFERATIVE DISORDERS” (Impact Biomedicines, Inc., priority 2018, published 2022).
Where two headings read alike, the source gives them in different places.

System: MPN-associated myelofibrosis
Settings: cited from earlier work

**Q.** What does the source list for N#CC[C@H](C1CCCC1)n1cc(-c2ncnc3[nH]ccc23)cn1 [ruxolitinib, (3R)-3-cyclopentyl-3-[4-(7H-pyrrolo[2,3-d]pyrimidin-4-yl)pyrazol-1-yl]propanenitrile]?
**A.** discontinuation rate (1-year): 49%; discontinuation rate (2-year): 71%; discontinuation rate (3-year): 86%
